From article PMC4363703 come the findings set out here.

The experiment concerns the target T1, Mic60/Mitofilin (human) (UniProt Q16891).
T1 sequence: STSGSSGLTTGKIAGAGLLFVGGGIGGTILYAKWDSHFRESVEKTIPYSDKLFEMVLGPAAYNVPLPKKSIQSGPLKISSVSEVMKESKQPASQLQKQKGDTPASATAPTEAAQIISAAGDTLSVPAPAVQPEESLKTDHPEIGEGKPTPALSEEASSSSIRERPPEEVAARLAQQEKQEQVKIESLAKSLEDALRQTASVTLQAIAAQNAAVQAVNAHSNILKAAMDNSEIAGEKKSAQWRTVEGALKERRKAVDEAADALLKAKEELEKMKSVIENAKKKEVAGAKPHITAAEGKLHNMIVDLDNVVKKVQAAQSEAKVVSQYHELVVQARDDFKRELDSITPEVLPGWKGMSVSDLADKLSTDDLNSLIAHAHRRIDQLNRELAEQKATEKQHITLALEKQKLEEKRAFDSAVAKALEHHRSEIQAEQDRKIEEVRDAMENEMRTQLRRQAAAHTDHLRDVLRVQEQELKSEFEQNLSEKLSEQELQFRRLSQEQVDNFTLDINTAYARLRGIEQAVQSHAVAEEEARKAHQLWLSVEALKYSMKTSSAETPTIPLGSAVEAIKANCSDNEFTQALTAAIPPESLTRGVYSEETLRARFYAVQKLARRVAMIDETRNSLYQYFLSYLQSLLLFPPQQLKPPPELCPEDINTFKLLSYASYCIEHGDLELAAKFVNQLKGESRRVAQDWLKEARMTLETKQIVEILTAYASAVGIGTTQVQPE
The experiment is described as follows: co-IP; Mic60/Mitofilin targeted with specific antibodies; precipitates analysed by SDS-PAGE and western blot with Mic60/Mitofilin, Mic23/ApoO and Tim44 antibodies; PBS as negative control.

These are yes or no findings as the source states them, for the method shown. Binding seen in cells or lysates may run through a third protein.

On to “Tim44 (translocase of the inner mitochondrial membrane 44) (human)”, for which the binding entry is “no binding”.
